Among all 300,000 compounds or so, about 5,400 (1.8%) were called active. Inconclusive results, whose numbers are uncertain, are shown with a selection of clear calls. Calls come from the whole dose curve; tested in HEK293 cells. Where the call is inconclusive, the potency comes from a doubtful curve fit.
experiment: qHTS for inhibitors of binding or entry into cells for Marburg Virus; conditions: Marburg virus pseudotyped entry inhibition, cell reporter; series mostly up to 37.8 µM
Potency is the fitted concentration of half-maximal effect.

SMILES	Potency
COc1cc2nc(CSc3nc(-c4ccc(F)cc4)cs3)[nH]c(=O)c2cc1OC	inconclusive: 1.26 µM [inhibitor, partial curve]
COc1cc(-c2nc3ccccn3c2/N=C/c2ccc(F)cc2)ccc1O	inactive
COC(=O)c1sccc1S(=O)(=O)N1CCCC(N(C)CCc2ccccn2)C1 (stereo unspecified)	inactive
Cc1cccc(OCC(=O)OC(C)C(=O)Nc2ccc(S(=O)(=O)N3CCCCC3)cc2)c1 (stereo unspecified)	inactive
CC(=O)Nc1ccc(S(=O)(=O)Nc2cccc3cccnc23)cc1	inactive
Cc1ccc(C2=NNC3(CCOC(C)(C)C3)S2)cc1 (stereo unspecified)	inconclusive: 3.16 µM [activator, full curve, poor fit]
Cc1cc(C(=O)COc2ccc3ccc(=O)oc3c2)c(C)n1C	inactive
COc1ccccc1-n1c(=S)[nH]c2c(sc(=S)n2-c2ccccc2C)c1=O	inconclusive: 6.31 µM [inhibitor, partial curve, poor fit]
CCC(C)C1Nc2ccc(C(=O)NCCc3ccc(OC)c(OC)c3)cc2NC1=O (stereo unspecified)	inconclusive: 14.1 µM [inhibitor, partial curve, poor fit]
CCc1ccc(C)[n+](CC(=O)c2cccs2)c1	inconclusive: 6.31 µM [inhibitor, single point]
CSc1ncccc1C(=O)Nc1ccccc1N1CCOCC1	inactive
Nc1ccc2nc(NC(=O)C3CCCCC3)sc2c1	inconclusive: 25.1 µM [inhibitor, single point]
Cn1cc(C(=O)Nc2ccccn2)c(=O)c2ccccc21	inconclusive: 0.562 µM [activator, full curve, poor fit]
COC(=O)c1ccc(NC(=S)Nc2ccc3ccccc3c2)cc1	inactive
Cc1ccc(CN2[C@@H](C)[C@@H](c3ccccc3)Oc3c(Cl)cccc3S2(=O)=O)cc1	inconclusive: 0.125 µM [inhibitor, full curve, poor fit]
OCCCNc1ncnc2sc(-c3ccccc3)cc12	inconclusive: 12.6 µM [inhibitor, single point]
Cc1ccc(Nc2nc(Nc3ccc(C)cc3)nc(SC3=NCCS3)n2)cc1	inconclusive: 29.1 µM [inhibitor, single point]
O=C(CCc1ccccc1)Nc1ccc(N2CCCCC2)cc1	inconclusive: 3.66 µM [activator, full curve]
N=C(N)CCCOc1ccccc1-c1ccccc1	inconclusive: 29.1 µM [inhibitor, single point]
NS(=O)(=O)c1ccc(CNC(=O)c2cc(-c3cccnc3)nc3ccccc23)cc1	inconclusive: 20 µM [inhibitor, single point]
COc1ccc(NC(=S)NNC(=O)c2ccc(S(=O)(=O)N3CCOCC3)cc2)cc1	inactive
COC(=O)Nc1nnc(/C=C/c2ccccc2)s1	inconclusive: 10 µM [inhibitor, partial curve]
O=C(CCS(=O)(=O)c1cc(Br)cc2c1N(C(=O)C1CC1)CC2)N1CCN(c2cccc(C(F)(F)F)c2)CC1	inconclusive: 11.2 µM [inhibitor, partial curve, poor fit]
COc1ccc(C(=O)c2ccccc2)cc1	inconclusive: 4.47 µM [inhibitor, single point]

SMILES	Potency
Cc1ccc(CSc2nc3ccncc3n2Cc2nc(-c3ccccc3C)oc2C)cc1	inconclusive: 8.91 µM [inhibitor, partial curve, poor fit]
COC(=O)c1cc(=O)n(CCc2ccccc2F)c(=Nc2ccc(F)c(Cl)c2)s1	inactive
Clc1ccccc1CSC1=NCCN1	inactive
CCc1ccccc1NC(=O)c1onc(C)c1Cl	inactive
CN(CC(=O)Nc1ccccc1N1CCOCC1)CC(=O)Nc1ccc(F)c(F)c1F	inactive
CCOc1ccccc1C(=O)NCC(=O)OCC(=O)c1ccc2c(c1)OCCO2	inconclusive: 12.6 µM [activator, single point]
CCN1CCN(S(=O)(=O)c2ccc(Cl)c(C(=O)NC(C)c3ccccc3Cl)c2)CC1 (stereo unspecified)	inconclusive: 22.4 µM [inhibitor, partial curve, poor fit]
O=C1NC(=O)/C(=C/c2ccc(OS(=O)(=O)c3ccc(F)cc3F)cc2)N1	inconclusive: 25.1 µM [inhibitor, single point]
COc1cccc(-c2ccc(-c3noc(-c4cccs4)n3)c(OC)n2)c1	inactive
O=C(CONS(=O)(=O)c1ccc(Cl)cc1)NCCNc1ncc(C(F)(F)F)cc1Cl	inconclusive: 15.8 µM [inhibitor, single point]
C[C@]12CC[C@H](O)CC1=C[C@H](O)C1C2CC[C@@]2(C)C1CC[C@@]2(O)C#Cc1ccc(CN)cc1 (stereo partly specified)	inconclusive: 6.31 µM [activator, single point]
Cc1occc1-c1nnc(SCC(=O)N2CCN(c3ccccc3F)CC2)n1C	inactive
Cc1ccc(N2C(=O)c3ccccc3C2C(=O)c2cc(C)ccc2O)cc1 (stereo unspecified)	inactive
COc1ccc(/C=C/c2n[nH]c(=O)c(C#N)c2C)cc1	inconclusive: 35.5 µM [inhibitor, single point]
CCOc1ccc2c(CC)cc(=O)oc2c1OCC	inconclusive: 1.41 µM [inhibitor, partial curve, poor fit]
c1ccc(Oc2cccc(OCCCn3cncn3)c2)cc1	inactive
Cc1ccc(SCc2ccc(C(=O)NCc3cccnc3)cc2)cc1	inconclusive: 35.5 µM [inhibitor, single point]
Cc1cc(CSc2nc(C)cc(=O)[nH]2)c2ncccc2c1	inconclusive: 35.5 µM [activator, single point]
Cn1c(=O)c2c(nc(NCc3cccnc3)n2Cc2ccc(Cl)cc2)n(C)c1=O	inconclusive: 11.2 µM [inhibitor, partial curve, poor fit]
CC(=O)Nc1ccc(SCC(=O)c2cc(C)ccc2C)cc1	inactive
CCN(CC)CC#CCC(C)(c1ccccc1)c1ccccc1	inconclusive: 7.3 µM [inhibitor, partial curve, poor fit]
NC(=O)/C(=N\OC(=O)c1ccco1)c1nc(-c2ccc(Br)cc2)cs1	inconclusive: 35.5 µM [inhibitor, single point]
CCOC(=O)C1(Cc2ccc(Cl)cc2)CCN(C(=O)CCc2cnccn2)CC1	inactive
Cc1ccc(NC(=O)COc2ccc(Cl)cc2Cl)cc1S(=O)(=O)N1CCOCC1	inactive

Part of the list above, reformatted:
Clc1ccccc1CSC1=NCCN1
  Potency: inactive
CCOc1ccc2c(CC)cc(=O)oc2c1OCC
  Potency: inconclusive: 1.41 µM [inhibitor, partial curve, poor fit]
CCN(CC)CC#CCC(C)(c1ccccc1)c1ccccc1
  Potency: inconclusive: 7.3 µM [inhibitor, partial curve, poor fit]

More records:

SMILES	Potency
O=S(=O)(NCc1cc(-c2ccccc2)no1)c1ccc(Cl)cc1	inactive
CCCC(=O)Nc1ccc2nc(SCC(=O)N3CCOCC3)sc2c1	inconclusive: 20 µM [activator, single point]
CCN(CC)c1ccc(/C=N/NC(=O)CNC(=O)/C=C/c2ccco2)cc1	inconclusive: 31.6 µM [inhibitor, single point]
COc1cccc(N2CCN(CC(=O)NC3=Nc4ccccc4N=C(C)C3c3ccccc3)CC2)c1 (stereo unspecified)	inconclusive: 25.1 µM [inhibitor, single point]
COCn1c(-c2cccc(Br)c2)nc2ccccc21	inconclusive: 20.6 µM [activator, partial curve, poor fit]
Nc1ccnn1Cc1ccc(Br)s1	inconclusive: 6.31 µM [activator, single point]
C=C1C(C)C2C(Cc3ccccc3)NC(=O)C23OC(=O)/C=C/C(O)CCCC(C)C/C=C/C3C1O (stereo unspecified)	inconclusive: 10 µM [inhibitor, partial curve, poor fit]
Cc1ccccc1N=Cc1cc2c(cc1O)OC(N)=C(C#N)C2c1ccccc1 (stereo unspecified)	inconclusive: 0.501 µM [inhibitor, full curve, poor fit]
CC(=O)N1CCCC1c1nc2ccccc2n1Cc1ccccc1F (stereo unspecified)	inactive
CCn1c(NCc2ccccn2)nc2c1c(=O)n(C)c(=O)n2C	inconclusive: 29.1 µM [inhibitor, single point]
COCC(=O)Nc1ccc(S(=O)(=O)Nc2nccs2)cc1	inconclusive: 6.31 µM [inhibitor, single point]
COc1ccc(/C=C(\C#N)C(=O)OCC(=O)NC(C)c2ccccc2)cc1 (stereo unspecified)	inconclusive: 35.5 µM [activator, single point]
Cc1ccc(SCC(=O)c2ccc[nH]2)cc1	inconclusive: 3.16 µM [activator, single point]
O=C(c1ccccc1)c1cc2ccccc2oc1=O	inactive
COc1ccc(C(=O)C2CCCN(Cc3ccc4nonc4c3)C2)cc1F (stereo unspecified)	inactive
CCOC(=O)C1(Cc2cccc(OC)c2)CCN(Cc2ccc3c(c2)OCCO3)CC1	inconclusive: 35.5 µM [inhibitor, single point]
CS(=O)(=O)c1ccc(-c2cn3cc(C(=O)O)ccc3n2)cc1	inconclusive: 5.01 µM [inhibitor, full curve, poor fit]
COc1ccc(NC(=O)CSc2ncnc3c2cnn3Cc2ccccc2)cc1OC	inconclusive: 29.1 µM [inhibitor, single point]
O=C(Oc1c(Cl)cc(Cl)c2cccnc12)N1CCOCC1	inconclusive: 16.4 µM [activator, partial curve, poor fit]
Cc1ccc(S(=O)(=O)N(CC(=O)NCCSc2ccc(Cl)cc2)c2cccc(Cl)c2)cc1	inconclusive: 35.5 µM [inhibitor, single point]
Cc1cccc(C)c1NC1=NCCCS1	inconclusive: 12.6 µM [inhibitor, partial curve]
CCNC(=O)c1ccc(-n2nc(C(F)(F)F)c3c2CCCC3)cc1	inactive
O=C(C1CC1)N1CCc2cc(S(=O)(=O)NC3CCN(Cc4ccccc4)CC3)ccc21	inconclusive: 15.8 µM [inhibitor, single point]

Copied from the list.
For Potency, Cc1ccccc1N=Cc1cc2c(cc1O)OC(N)=C(C#N)C2c1ccccc1 (stereo unspecified) has the entry inconclusive: 0.501 µM [inhibitor, full curve, poor fit]
For Potency, COCC(=O)Nc1ccc(S(=O)(=O)Nc2nccs2)cc1 has the entry inconclusive: 6.31 µM [inhibitor, single point]
